# Measurements reported in PubChem BioAssay AID1347423 (Functional Genomics Laboratory (NCATS/FGL), 2020).
# Out of some 52,000 sequences screened, about 210 (0.4%) were called active.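 How the source made its calls: active means gene whose silencing raises cell survival under the drug, median off-target-corrected z-score across its silencing RNAs 2 or more; inactive means the rest.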 This is one part of the list.
# Test: Resistance to Poly (ADP-Ribose) Polymerase inhibitor: Gene Identification via Genome-wide siRNA Screen
# Conditions: mouse BRCA2 R2336H ES cells, olaparib, CellTiter-Glo viability; hits give high values
# Procedure, shortened: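 Mouse BRCA2 R2336H ES cells were reverse-transfected with siRNA (20 nM final), treated at 48 h with 500 nM olaparib, and read by CellTiter-Glo after 72 h. Scores: MAD-based z per siRNA, median per gene, seed off-target correction.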
row,Sequence,z-score
1,CCAAUCAGCAACUUCUUAUTT against Fbxl21,inactive: -0.295
2,AUGGUGCUGUUUUAUUUGUTT against Olfr671,inactive: -0.904
3,GGCAGUGCUGGCAACAAAUTT against Hsd3b5,inactive: 0.712
4,GGCACCGAGAUUGUCAUUCTT against Olfr1246,inactive: 0.346
5,GGAGCUGAAAAAACUGAAGTT against 9130017A15Rik,inactive: -2.5
6,GAAGUUCAAUGGAGAAGACTT against Arl2,inactive: -1.07
7,CCAUACACAUGUAAUUCUCTT against Wig1,inactive: 0.586
8,CCACAGUCUAUUCAAACUUTT against B130055D15Rik,inactive: -0.946
9,GGAUAACCUUAACUUCUGATT against 2810449C13Rik,inactive: 2.16
10,GGUGACUGGUUUGUUGCUUTT against 5730458D16Rik,inactive: 0.0248
11,GGAAAAGUGAUAGUGGCUCTT against Ccnl2,inactive: -0.21
12,GGGUCUGGAGAAUCUUCAGTT against Tgfb1i1,inactive: -0.83
13,GGUUUAAAUGCAGUUCACATT against Arl9,inactive: -0.447
14,GGAGGAGUUCAUUGAGGCATT against Elf5,inactive: 0.521
15,GCAAGAGGAGGACGAAAAGTT against Ssna1,inactive: -2.39
16,CCAAGAGCUAUGUUGGUUUTT against Txln,inactive: -0.579
17,CGCCUUCCUUCAACACGCATT against 1700049L16Rik,inactive: -0.258
18,CGAUGGGUAGUGUUUUAACTT against Mpra,inactive: 1.19
19,GCCAUUAAUGUACCAGGUUTT against Olfr894,inactive: -1.81
20,CCGCUCACUUCUUGAAUAUTT against Rnf125,inactive: -0.852
21,GGACGUAGAAGUUUGGGAGTT against Nupl2,inactive: -0.119
22,GGCCCACUUUAUCAUGAAUTT against Zfp259,inactive: -0.205
23,GGGAGAUCUUUAAGAGAAATT against Tcfap2a,inactive: -0.65
24,GCUACGCUUCCUUAUUUGCTT against Tubgcp3,inactive: -1.56
25,GGAACUCACUAACUUCUUGTT against 4930432J16Rik,inactive: -0.135
26,GGGUGGUAACAACAUUAAATT against Bicc1,inactive: 1.33

row,Sequence,z-score
1,GCACACGAAGCAUUGACACTT against Als2cr13,inactive: 0.767
2,GCCCUGGAAGAAUUAUGUGTT against Cml4,inactive: 0.186
3,CCAUUUCUCACCAGUGAUCTT against LOC433481,inactive: 0.609
4,GGCCAAUCUCACCUGGACATT against Man2b1,inactive: 0.0484
5,GGGCAUUUAAAAUAAGGCATT against Nfib,inactive: 0.652
6,GGAGUACAUUCCCUCUACCTT against Cml1,inactive: 0.554
7,CGUUGAUGUGUAUUUAAACTT against AW146242,inactive: 0.87
8,GGAUCCUGCUAAGACCAUCTT against Sstr3,inactive: 1.25
9,CGUAACUGAGUCAAUUAGUTT against Pdzk6,inactive: -0.493
10,GGCACAAAAGAAGAUCCUGTT against Tnfaip8,inactive: 0.328
11,GCUAUUUUCGUCACUUUCUTT against Stk22a,inactive: -0.302
12,GCAAUACGUGGAAGAUGGATT against G630042G04,inactive: -2.37
13,CCAUUGCAUAUUUAGUAGCTT against Sox11,inactive: -0.326
14,GGUGGUACAGGAUCUAUGUTT against Etfa,inactive: -0.279
15,GGUUUAAACCAGAAAAAUGTT against 4930524B15Rik,inactive: -0.0462
16,GGUUUACACCCUCAGAUCATT against Cct7,inactive: -2.96
17,GGUCAAGUUAAGGUAUUUCTT against Pkhd1,inactive: 0.495
18,GGCAUGACUUCCACAUGAATT against Pdcd1,inactive: 0.701
19,GAACCAUCCGAGUAUGGCUTT against Wdfy1,inactive: -1.25
20,GGAAGUCUAGGUAAAAAAGTT against Samsn1,inactive: 0.246
21,GGUCAUUGAAAACUGUGCGTT against Sardh,inactive: -0.00863
22,GGUGAUUUGAACCUUUUGATT against Rab3d,inactive: -0.344
23,GGUUAUAUGCAGAGGAACUTT against Arid1a,inactive: -1.09
24,GGCUUUAAAGGGAAUGCCCTT against Ube1c,inactive: 0.61
25,GGCACCUUGGAGUUACAUATT against Pcdha10,inactive: -1.21
26,CGAGUCAAUCAACUUGUCUTT against Olfr54,inactive: -0.239

# A stretch taken from the entries so far, for reference:
row,Sequence,z-score
3,CCAUUUCUCACCAGUGAUCTT against LOC433481,inactive: 0.609
4,GGCCAAUCUCACCUGGACATT against Man2b1,inactive: 0.0484
5,GGGCAUUUAAAAUAAGGCATT against Nfib,inactive: 0.652
6,GGAGUACAUUCCCUCUACCTT against Cml1,inactive: 0.554
7,CGUUGAUGUGUAUUUAAACTT against AW146242,inactive: 0.87
8,GGAUCCUGCUAAGACCAUCTT against Sstr3,inactive: 1.25
9,CGUAACUGAGUCAAUUAGUTT against Pdzk6,inactive: -0.493
10,GGCACAAAAGAAGAUCCUGTT against Tnfaip8,inactive: 0.328
11,GCUAUUUUCGUCACUUUCUTT against Stk22a,inactive: -0.302
12,GCAAUACGUGGAAGAUGGATT against G630042G04,inactive: -2.37
13,CCAUUGCAUAUUUAGUAGCTT against Sox11,inactive: -0.326
14,GGUGGUACAGGAUCUAUGUTT against Etfa,inactive: -0.279
15,GGUUUAAACCAGAAAAAUGTT against 4930524B15Rik,inactive: -0.0462
16,GGUUUACACCCUCAGAUCATT against Cct7,inactive: -2.96
17,GGUCAAGUUAAGGUAUUUCTT against Pkhd1,inactive: 0.495
18,GGCAUGACUUCCACAUGAATT against Pdcd1,inactive: 0.701
19,GAACCAUCCGAGUAUGGCUTT against Wdfy1,inactive: -1.25
20,GGAAGUCUAGGUAAAAAAGTT against Samsn1,inactive: 0.246
21,GGUCAUUGAAAACUGUGCGTT against Sardh,inactive: -0.00863
22,GGUGAUUUGAACCUUUUGATT against Rab3d,inactive: -0.344
23,GGUUAUAUGCAGAGGAACUTT against Arid1a,inactive: -1.09
24,GGCUUUAAAGGGAAUGCCCTT against Ube1c,inactive: 0.61
25,GGCACCUUGGAGUUACAUATT against Pcdha10,inactive: -1.21
26,CGAGUCAAUCAACUUGUCUTT against Olfr54,inactive: -0.239

# Following part:

row,Sequence,z-score
1,GGUGACUAGUUCCAGAAGATT against Ptprm,inactive: 0.382
2,GCAUCUGGGACAUUUAGAGTT against Cd200r3,inactive: -0.809
3,CGGGUAACAGAAAUACUGUTT against Trib1,inactive: 1.05
4,GGCUGUAGCCAAAUAUCUUTT against Tloc1,inactive: 0.579
5,GGAGAGGAUGCAUGUAAAATT against 1110004B15Rik,inactive: -1.95
6,GGCAGUCAAUGAAGUUUUUTT against Fbxo38,inactive: -0.183
7,GGACUGUGGCACAGAGAAATT against Hgfac,inactive: 0.154
8,GCUUUUCUAGAAUACAGCCTT against Tdpoz4,inactive: 0.43
9,UACUUCUGACUGUCAUUGGTT against Olfr310,inactive: 0.947
10,GGAUAAUGCUUUAUGGGAATT against 1700112P19Rik,inactive: 0.693
11,CGUAAAACGAGUGCUUUUATT against Tcfcp2l3,inactive: 1.21
12,GGUCACGAUUAUCUUCAAATT against Rgmb,inactive: -0.29
13,GGAACACUUUAAGACCAAATT against Fmnl1,inactive: 1.6
14,GGCCCUUCAUGAAGAGCAATT against Carf,inactive: 0.265
15,GGACAAUUAUGAGAUGCACTT against Surf5,inactive: -0.381
16,GGAAGACAACAACCUAGAATT against Rpn1,inactive: 0.231
17,GCAGGACAUGUUGUUCCCUTT against Aarsl,inactive: -1.57
18,GGGAAGGCACACCAUAGAATT against Zfp369,inactive: 2
19,GGAGGUAACAACAACAGAATT against BC028528,inactive: 0.67
20,CGGCAGAUGCAUUCAGGAUTT against 5830436D01Rik,inactive: 1.82
21,GGGACAGUAGAAGAUGUAGTT against Got2,inactive: -2.53
22,GCAUUAAACUGAUUAUCGATT against 4631426J05Rik,inactive: 0.856
23,CGGGAAGAAGUUCAUAAAUTT against Topbp1,inactive: -1.43
24,GCAGGUUUAACAACUUACUTT against Dmgdh,inactive: -0.352
25,GGGAGAUGAAGAGGAGAAGTT against Smad9,inactive: -2.34
26,GCCACAGAGCUAGACUGUCTT against 2810046M22Rik,inactive: -0.347

row,Sequence,z-score
1,GGAACACAAACUGAAAGUCTT against Elac2,inactive: 0.85
2,CCUCGACAUCUAAUGAAGATT against 4933405O20Rik,inactive: 0.731
3,CGCAUAUUGAGAUAUCUUGTT against Cbln3,inactive: 0.834
4,GGAAUUAGUCUCCAAAUAUTT against Eat2,inactive: -2.33
5,GGUUGAAGAUGAAAGAAGATT against Sin3a,inactive: -3.23
6,GCAGCAAGUUUUGUCAGGGTT against Tmprss13,inactive: -0.689
7,GGGUAAUGGGCCAGUAUCATT against 1700025K23Rik,inactive: -2.14
8,GCAAAUCGAAAGCGGAGGUTT against Fem1c,inactive: 0.315
9,GCAAACUGCUCUGUGGUAUTT against Olfr1310,inactive: -0.171
10,GGAUUUGACAGGUUUGGAATT against MGC79224,inactive: 0.486
11,GGGUAUGUGCAAAUAUUCATT against Anln,inactive: 1.29
12,CCUAUUUGGCCAUUAUCCATT against 2810423G08Rik,inactive: -0.201
13,GGACAGGUUCGAGUCAACATT against Agc1,inactive: 2.89
14,GCGGCUCUUACGAGGUUUATT against Upk3a,inactive: -0.87
15,GUACGUCAAGAGCCUGCGUTT against 5430432M24Rik,inactive: 0.455
16,GGAUGCACUAUCAUUAAGCTT against Tpx2,inactive: 0.672
17,CCAAAUGAUUCUGUGGCUGTT against Cebpe,inactive: -0.507
18,GGAUCUUCUUCUAUCAGUCTT against Ncf4,inactive: -0.982
19,GGGAUAUCAGUAUUUCUCATT against AI413782,inactive: 0.216
20,GGCAACAUCCAAAAACUCUTT against Yme1l1,inactive: -1.34
21,CCAGCAAAUGAGAGGUCUGTT against Olfr1024,inactive: -1.39
22,GGCCAUUCUGGAAACUCCATT against Foxp4,inactive: -1.17
23,GCAAGCCAACUGACCAUCATT against Nudt2,inactive: -2.21
24,CCACUUAACGAAGAAAUUATT against 8030462N17Rik,inactive: 0.0347
25,GGUAGGCUAAAUAAAGAAGTT against 1500009M05Rik,inactive: 0.659
26,GCUUGGCAGGUGAAUGUCATT against Oprm1,inactive: 0.182
